Reference: PubChem BioAssay AID743454 (Peter MacCallum Cancer Centre, 2014)
Shown is an unselected part of about 18,000 reagents tested. Over the whole deposit, 450 (2.5%) got an active call. 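Single biological run; no consistent viability z cut-off exists, so the class columns, not z-scores, define the calls.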 Unmarked entries are inactive.

Test: 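Knock-downs lowering viability or raising caspase 3/7 activity in vorinostat-treated resistant cells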 (primary screen)
System: human HCT116-VR colon cancer cells, selected for vorinostat resistance
Reagent: siRNA pool against human genes, 40 nM siRNA pool
Time to read-out: vorinostat for 24 h, read-out about 72 h after transfection
Treatment: vorinostat at 2.5 µM final
Detection: 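Two measures, CellTiter-Fluor viability and luminescent caspase 3/7 activity, each as fold change against same-plate mock wells, mean of duplicates, then screen-wide robust z-score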
Scale: viability robust z-score: higher = more viable cells than screen typical; caspase robust z-score: higher = more caspase 3/7 activity than screen typical
Call rule: 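a knock-down is a hit when classed RV1 or RV2 for lowered viability, or CA1 or CA2 for caspase activation; those lethal without drug were dropped; hits were retested singly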

RRP1B (ribosomal RNA processing 1B) showed viability hit class no change; caspase hit class no change; viability robust z-score 0.34; caspase robust z-score -0.26. Against SIRT6 (sirtuin 6), the values are viability hit class no change; caspase hit class no change; viability robust z-score 0.05; caspase robust z-score 0.68. Silencing of TANGO2 (transport and golgi organization 2 homolog) resulted in: viability hit class no change (active); caspase hit class CA2 (caspase activation); viability robust z-score -1.98; caspase robust z-score 5.37. STEAP2 (STEAP2 metalloreductase) showed viability hit class no change; caspase hit class no change; viability robust z-score 0.44; caspase robust z-score 0.13. For CYP2E1 (cytochrome P450 family 2 subfamily E member 1), the entry reads viability hit class no change; caspase hit class no change; viability robust z-score 0.3; caspase robust z-score -0.2. Against FXYD6 (FXYD domain containing ion transport regulator 6), the entry reads viability hit class no change; caspase hit class no change; viability robust z-score -1.4; caspase robust z-score 0.75.

Silencing of MMP17 (matrix metallopeptidase 17) came out at: viability hit class no change; caspase hit class no change; viability robust z-score 2.25; caspase robust z-score -0.52. Against NSF (N-ethylmaleimide sensitive factor, vesicle fusing ATPase) the deposit lists viability hit class no change (active); caspase hit class CA1 (caspase activation); viability robust z-score -0.44; caspase robust z-score 9.07. RASGRP4 (RAS guanyl releasing protein 4) gave viability hit class no change; caspase hit class no change; viability robust z-score 0.12; caspase robust z-score 0.03. KCTD12 (potassium channel tetramerization domain containing 12) gave viability hit class no change; caspase hit class no change; viability robust z-score -3.15; caspase robust z-score 1.31. After knock-down of NUDT18 (nudix hydrolase 18), the record shows viability hit class no change; caspase hit class no change; viability robust z-score 1.16; caspase robust z-score -0.19. Knock-down of RBM8A (RNA binding motif protein 8A) resulted in: viability hit class no change; caspase hit class no change; viability robust z-score -4.88; caspase robust z-score 1.17.

Silencing of MT1B (metallothionein 1B) gave: viability hit class no change; caspase hit class no change; viability robust z-score -1.19; caspase robust z-score 0.26. Knock-down of KIF13B (kinesin family member 13B) resulted in: viability hit class no change; caspase hit class no change; viability robust z-score -0.15; caspase robust z-score -0.88. KRT36 (keratin 36) gave viability hit class no change; caspase hit class no change; viability robust z-score -1.09; caspase robust z-score 0.15. After knock-down of QPRT (quinolinate phosphoribosyltransferase), the screen gave viability hit class no change; caspase hit class no change; viability robust z-score -0.5; caspase robust z-score 0.28. For POM121L12 (POM121 transmembrane nucleoporin like 12) the deposit lists viability hit class no change; caspase hit class no change; viability robust z-score -0.46; caspase robust z-score -0.62. Against GPC6 (glypican 6), the entry reads viability hit class no change; caspase hit class no change; viability robust z-score -1.05; caspase robust z-score 3.12.

TFAP2D (transcription factor AP-2 delta) gave viability hit class no change (active); caspase hit class CA1 (caspase activation); viability robust z-score 1.18; caspase robust z-score 5.37. For ZSCAN1 (zinc finger and SCAN domain containing 1), the entry reads viability hit class no change; caspase hit class no change; viability robust z-score 0.47; caspase robust z-score 0.16. With knock-down of ATRN (attractin), the screen gave viability hit class no change; caspase hit class no change; viability robust z-score -0.08; caspase robust z-score -0.32. Against CXCL12 (C-X-C motif chemokine ligand 12) the deposit lists viability hit class no change; caspase hit class no change; viability robust z-score -1.07; caspase robust z-score 0.98. ARHGAP8 (Rho GTPase activating protein 8) gave viability hit class no change; caspase hit class no change; viability robust z-score 1.69; caspase robust z-score -0.02. CMPK1 (cytidine/uridine monophosphate kinase 1) showed viability hit class no change; caspase hit class no change; viability robust z-score 0.72; caspase robust z-score 0.7.

GPR37L1 (G protein-coupled receptor 37 like 1) gave viability hit class no change; caspase hit class no change; viability robust z-score -0.63; caspase robust z-score 1.69. ITSN2 (intersectin 2) gave viability hit class no change; caspase hit class no change; viability robust z-score -2.06; caspase robust z-score 0.5. Against RXFP3 (relaxin family peptide receptor 3), the entry reads viability hit class no change; caspase hit class no change; viability robust z-score -0.02; caspase robust z-score 0.17.

4 entries already listed, arranged by “caspase robust z-score”, low to high.
KIF13B (kinesin family member 13B) → viability hit class = no change; caspase hit class = no change; viability robust z-score = -0.15; caspase robust z-score = -0.88
NUDT18 (nudix hydrolase 18) → viability hit class = no change; caspase hit class = no change; viability robust z-score = 1.16; caspase robust z-score = -0.19
MT1B (metallothionein 1B) → viability hit class = no change; caspase hit class = no change; viability robust z-score = -1.19; caspase robust z-score = 0.26
RBM8A (RNA binding motif protein 8A) → viability hit class = no change; caspase hit class = no change; viability robust z-score = -4.88; caspase robust z-score = 1.17
